PubChem BioAssay AID504467 (National Center for Advancing Translational Sciences (NCATS), 2011)
Among all 330,000 compounds or so, about 7,700 (2.3%) were called active. Inconclusive results, whose numbers are uncertain, are shown with a selection of clear calls. Calls come from the whole dose curve; as a rule, active = well fitted inhibition curve with a large enough effect; inconclusive = small, poorly fitted or top-dose-only effect, or effect the other way; inactive = flat fitted curve, though single readings scatter. Potencies beside an inconclusive call are fits to weak or partial responses and may not hold up.

Assay: qHTS screen for small molecules that inhibit ELG1-dependent DNA repair in human embryonic kidney (HEK293T) cells expressing luciferase-tagged ELG1; note: nearly all actives have a fitted effect of over 55% in size
Details: HEK293T ELG1-luciferase reporter, luminescence, 16 h, DNA damage induced by 5-fluorouridine; activity change, negative = inhibition: at 46.1 µM (top of the series)
Summary of the method: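 Reporter activity after DNA damage by 5-fluorouridine is monitored. Compound-treated cells incubate 16 hr at 37 °C, then ONE-Glo is added for 30 min before luminescence reading.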
% is set by controls: 0 for no effect and ±100 for the full control effect; potency is the fitted concentration of half-maximal effect.

Question: For `COc1ccc2oc(=O)c(-c3nnc(N)s3)cc2c1`, which Potency is on record?
Answer: inconclusive: 20.6 µM [activator, partial curve]

Question: Which “activity change, negative = inhibition” value does the source give for `COc1ccccc1N1CCN(S(=O)(=O)CCNC(=O)c2cccc(F)c2)CC1` here?
Answer: inactive: -15.3%

Question: For `Cc1ccc(OCC(=O)Nc2ccc(O)c(C(=O)O)c2)cc1C`, which “activity change, negative = inhibition” value is on record?
Answer: inactive: 18.2%

Question: Which Potency does the source give for `Cc1sc2nc(CSCC(=O)N(CCC#N)c3ccccc3)[nH]c(=O)c2c1C` here?
Answer: inconclusive: 32.6 µM [inhibitor, partial curve, poor fit]

Question: Which Potency does the source give for `O=C(NCc1cccnc1)C1CCN(S(=O)(=O)c2cccs2)CC1` here?
Answer: inconclusive: 32.6 µM [activator, partial curve, poor fit]

Question: With `Cc1cc(C(=O)Nc2nc3c(s2)CCCC3)no1` as the compound, how does the Potency read?
Answer: inconclusive: 0.58 µM [activator, partial curve]

Question: Which Potency does the source give for `CCN(CCCNC(=O)c1cc2c(-c3cccc(OC)c3)nn(C)c2s1)Cc1ccccc1` here?
Answer: inconclusive: 18.3 µM [inhibitor, single point]

Question: With `COC(=O)Cc1ccc(NC(=O)C(c2ccccc2)c2ccccc2)cc1` as the compound, how does the “activity change, negative = inhibition” value read?
Answer: inactive: -1.77%

Question: With `Cc1ccc(S(=O)(=O)N(C)C[C@H]2Oc3ccc(NC(=O)C4CCCCC4)cc3C(=O)N([C@H](C)CO)C[C@H]2C)cc1` as the compound, how does the “activity change, negative = inhibition” value read?
Answer: inactive: 3.8%

Question: With `Cc1cnc(NC(=O)Cc2ccc(C)c(C)c2)s1` as the compound, how does the Potency read?
Answer: inconclusive: 29.1 µM [inhibitor, single point]

Question: With `CC(C)(CN1CCCC1)NS(=O)(=O)c1ccccc1` as the compound, how does the “activity change, negative = inhibition” value read?
Answer: inactive: 8.91%

Question: Which activity change, negative = inhibition does the source give for `CCCCCCCSc1nnc(N)s1` here?
Answer: inconclusive: 33.5% [activator]

Question: With `Cc1cc(NC(=O)C(C)SCC(=O)Nc2ccccc2OC(F)F)no1` (centres undefined) as the compound, how does the “activity change, negative = inhibition” value read?
Answer: inactive: -12%

Question: With `O=C(c1cccc(C(=O)N2CCN(c3ccccc3)CC2)c1)N1CCN(c2ccccc2)CC1` as the compound, how does the Potency read?
Answer: inconclusive: 20.6 µM [inhibitor, single point]

Question: For `COc1ccc(CNC(=O)[C@H](CCSC)NC(=O)N2CCn3c2nc2ccccc23)cc1`, which Potency is on record?
Answer: inconclusive: 29.1 µM [inhibitor, single point]

Question: With `O=C1C(=O)N(Cc2cccnc2)C(c2cccc(Br)c2)/C1=C(/O)c1ccc2c(c1)OCO2` (centres undefined) as the compound, how does the “activity change, negative = inhibition” value read?
Answer: inactive: -16.8%

Question: Which Potency does the source give for `Cc1cc(C)c2sc(N(CCCN(C)C)C(=O)c3ccc(S(=O)(=O)N(C)Cc4ccccc4)cc3)nc2c1` here?
Answer: inconclusive: 23.1 µM [inhibitor, single point]

Question: Which Potency does the source give for `COc1ccc(OC)c(C2=Nn3c(nnc3C3CCCCC3)SC2)c1` here?
Answer: inconclusive: 29.1 µM [inhibitor, single point]

Question: With `Clc1ccc(-n2nnc(-c3cccnc3)n2)cc1Cl` as the compound, how does the Potency read?
Answer: inconclusive: 20.6 µM [activator, partial curve]

Question: For `Cc1ccc(S(=O)(=O)N2CCOCC2)cc1NC(=O)c1cc2c(s1)CCC2`, which Potency is on record?
Answer: active: 23.1 µM

Question: Which Potency does the source give for `Cc1ccc(NC(=O)c2ncn(CC(=O)N[C@H](CO)Cc3c[nH]c4ccccc34)n2)cc1C` here?
Answer: inconclusive: 23.1 µM [activator, single point]

Question: With `CCCS(=O)(=O)N1CCCC(C(=O)N2CCCCC2)C1` (centres undefined) as the compound, how does the “activity change, negative = inhibition” value read?
Answer: inactive: 21.9%

Question: Which Potency does the source give for `COCC(=O)Nc1cc(C(=O)Nc2ccccc2C)ccc1Cl` here?
Answer: inconclusive: 29.1 µM [activator, single point]

Question: For `COc1cc(OC)cc(C(=O)Nc2ccc3c(c2)n(C)c(=O)n3C)c1`, which Potency is on record?
Answer: inconclusive: 18.3 µM [activator, partial curve]

Question: With `COc1ccc(C2CC(c3cc(OC)ccc3OC)n3nnnc3N2)cc1` (centres undefined) as the compound, how does the “activity change, negative = inhibition” value read?
Answer: inactive: -22.8%

Question: Which “activity change, negative = inhibition” value does the source give for `NNC(=O)c1cc2c(ccc3ccccc32)o1` here?
Answer: inactive: 14.9%

Question: Which “activity change, negative = inhibition” value does the source give for `CC(NC(=O)c1cn(C)c2ccc(S(=O)(=O)N3CCCC3)cc2c1=O)c1ccccc1` (centres undefined) here?
Answer: inactive: 3.15%

Question: Which Potency does the source give for `Cc1noc(C)c1CSc1nnc(-c2ccccc2)n1Cc1ccco1` here?
Answer: inconclusive: 13 µM [activator, partial curve]

Question: For `O=C(Oc1cccc2cccnc12)c1ccc2c(c1)OCCO2`, which Potency is on record?
Answer: active: 10.3 µM

Question: With `Cc1noc(C)c1S(=O)(=O)Nc1ccc(C(=O)N2CCN(c3ccc(Cl)cc3)CC2)cc1` as the compound, how does the Potency read?
Answer: inconclusive: 0.164 µM [inhibitor, full curve, poor fit]

Question: With `Nn1c(SCc2c(F)cccc2F)nnc1-c1ccccn1` as the compound, how does the Potency read?
Answer: inconclusive: 13 µM [activator, partial curve]

Question: For `Cc1ccc(C2=NN=C(NC(=O)CSc3nc(C)cc(C)n3)SC2)cc1`, which Potency is on record?
Answer: inconclusive: 18.4 µM [inhibitor, partial curve]

Question: For `O=C(N=Nc1c(O)n(Cc2ccccc2)c2ccccc12)c1cc2ccccc2cc1O`, which Potency is on record?
Answer: inconclusive: 6.51 µM [activator, partial curve]

Question: With `CCCc1cc(=O)oc2cc(OC(=O)CN3C(=O)NC4(CCCC4)C3=O)ccc12` as the compound, how does the “activity change, negative = inhibition” value read?
Answer: inactive: -19.6%

Question: For `N#CC1(NC(=O)COc2ccccc2[N+](=O)[O-])CCCCC1`, which “activity change, negative = inhibition” value is on record?
Answer: inactive: 0%

Question: For `Cc1ccccc1CSCC(=O)NNC(=S)NCC1CCCO1` (centres undefined), which Potency is on record?
Answer: inconclusive: 32.6 µM [inhibitor, partial curve, poor fit]

Question: For `CCOC(=O)C1CCCN(S(=O)(=O)c2c(C)[nH]c(C)c2C(=O)N2CCCC2)C1` (centres undefined), which Potency is on record?
Answer: inconclusive: 6.51 µM [inhibitor, single point]

Question: Which “activity change, negative = inhibition” value does the source give for `COc1cccc(CN2CCN(CC#Cc3ccccc3)CC2CCO)c1` (centres undefined) here?
Answer: inactive: 5.34%

Question: With `COc1ccc(S(=O)(=O)N2CCCC2CNC(=O)C(=O)Nc2cccc(F)c2)cc1` (centres undefined) as the compound, how does the Potency read?
Answer: inconclusive: 7.3 µM [inhibitor, single point]

Question: With `CC(NC(=O)c1cc2cc(Br)ccc2oc1=N)c1ccccc1` (centres undefined) as the compound, how does the “activity change, negative = inhibition” value read?
Answer: inactive: -13.9%

Question: For `CCCCNC(=O)CSc1nc2ccc(N3CCOCC3)cc2c(=O)n1Cc1ccc(OC)cc1`, which Potency is on record?
Answer: inconclusive: 29.1 µM [activator, partial curve, poor fit]

Question: Which Potency does the source give for `O=C(/C=C/c1cn(-c2ccccc2)nc1-c1cccc(Cl)c1)N1CCN(c2ccccn2)CC1` here?
Answer: active: 20.6 µM

Question: For `O=C(NC(=S)Nc1ccc2c(c1)C(=O)c1ccccc1C2=O)c1ccc(F)cc1`, which Potency is on record?
Answer: inconclusive: 6.51 µM [activator, partial curve]

Question: Which Potency does the source give for `CCCCNc1cc(NC(C)=O)cc2cc(OC)c(OC)cc12` here?
Answer: inconclusive: 14.6 µM [inhibitor, partial curve, poor fit]

Question: For `Cc1cc(N2CCCCC2)nc2ccc(NC(=O)CCC(=O)NCCC(C)C)cc12`, which Potency is on record?
Answer: inconclusive: 7.31 µM [activator, partial curve]

Question: For `COc1ccc(Nc2ncnc3ccc(C)cc23)cc1`, which Potency is on record?
Answer: inconclusive: 11.6 µM [inhibitor, partial curve]

Question: With `CCN(CC)C(=O)C1CCCN(c2ccc([N+](=O)[O-])cc2/C=N/NC(=O)c2cccc(O)c2)C1` (centres undefined) as the compound, how does the Potency read?
Answer: inconclusive: 20.6 µM [inhibitor, single point]

Question: Which Potency does the source give for `CCC1CCCCN1CCCNC(=O)c1cc2c(=O)[nH]c3ccccc3c2n1C` (centres undefined) here?
Answer: inconclusive: 16.4 µM [activator, single point]

Question: With `C/C=C(\C)c1nnc(NC(=O)c2ccco2)s1` as the compound, how does the Potency read?
Answer: inconclusive: 12.6 µM [activator, partial curve, poor fit]

Question: With `CN(C(=O)CNC(=O)c1ccc(Br)o1)C1CCCCC1` as the compound, how does the Potency read?
Answer: inconclusive: 20.6 µM [activator, single point]

Question: For `CC1(C)C[C@H]2C3=CCC4[C@@]5(C)CC[C@H](O)[C@](C)(CO)C5CC[C@@]4(C)[C@]3(C)C[C@H]3O[C@@H]1[C@H](O)[C@]32CO` (some centres undefined), which Potency is on record?
Answer: inconclusive: 13 µM [activator, single point]

Question: With `CCOC(=O)CSc1cc(-c2ccccc2)nc2ncnn12` as the compound, how does the Potency read?
Answer: inconclusive: 14.6 µM [activator, partial curve]

Question: For `O=C(NNC(=O)C1CC2CCC1C2)c1ccccc1` (centres undefined), which Potency is on record?
Answer: inconclusive: 29.1 µM [activator, single point]

Question: With `CCn1cc(C(=O)N[C@@H](CCSC)C(=O)NC(C)(C)CO)c(=O)c2cc3c(cc21)OCO3` as the compound, how does the “activity change, negative = inhibition” value read?
Answer: inactive: 10.5%

Question: With `CCc1cccc(NC(=O)NC2CCCCC2)c1` as the compound, how does the Potency read?
Answer: inconclusive: 29.1 µM [activator, single point]

Question: With `O=C(NCC1CCCO1)c1ccc2c(=O)n(Cc3ccco3)c(SCC(=O)N3CCCC3)nc2c1` (centres undefined) as the compound, how does the Potency read?
Answer: inconclusive: 9.2 µM [inhibitor, partial curve, poor fit]

Question: Which Potency does the source give for `Cc1ccc(NNC(=O)c2cc(C)on2)c(C)c1` here?
Answer: inconclusive: 18.3 µM [inhibitor, single point]

Question: With `CC(Sc1ncccn1)C(=O)NC1CCCC1` (centres undefined) as the compound, how does the Potency read?
Answer: inconclusive: 25.9 µM [activator, single point]

Question: Which Potency does the source give for `CCCCOc1ccc(CSCCN)cc1Cl` here?
Answer: inconclusive: 25.9 µM [activator, single point]

Question: For `COc1ccc(C(=O)N2CCN(c3cccc(C)c3C)CC2)cc1S(=O)(=O)NC1CC1`, which Potency is on record?
Answer: inconclusive: 29.1 µM [inhibitor, single point]

Question: For `CCc1nnc(NS(=O)(=O)c2ccc(N=Cc3c(C)[nH]n(-c4ccc(C)c(C)c4)c3=O)cc2)s1`, which Potency is on record?
Answer: inconclusive: 25.9 µM [activator, single point]

Question: With `COc1ccc(/C(O)=C/Sc2nnc(Cc3ccccc3)o2)cc1` as the compound, how does the “activity change, negative = inhibition” value read?
Answer: inactive: -0.508%

Question: Which “activity change, negative = inhibition” value does the source give for `CCCN(C(=O)CSCC(=O)Nc1ccc(OC)cc1)c1c(N)n(Cc2ccccc2)c(=O)[nH]c1=O` here?
Answer: inactive: 8.9%

Question: For `CN(CC(=O)Nc1cccc(S(=O)(=O)N(C)C)c1)Cc1ccccc1`, which Potency is on record?
Answer: inconclusive: 9.2 µM [activator, partial curve]

Question: For `COC(=O)c1sc2nc(SCc3cccc(Cl)c3)n(N)c(=O)c2c1C`, which Potency is on record?
Answer: inconclusive: 25.9 µM [inhibitor, partial curve, poor fit]

Question: For `O=C(c1cc(-c2ccccc2)nc2ccccc12)N1CCN(C2CCS(=O)(=O)C2)CC1` (centres undefined), which “activity change, negative = inhibition” value is on record?
Answer: inactive: 5.97%

Question: With `O=C(Nc1cccc2oc(=O)ccc12)c1ccc([N+](=O)[O-])cc1[N+](=O)[O-]` as the compound, how does the “activity change, negative = inhibition” value read?
Answer: inactive: -22.3%

Question: Which “activity change, negative = inhibition” value does the source give for `O=C(N/N=C\c1cccs1)c1ccccc1-n1cccc1` here?
Answer: inactive: 5.88%

Question: With `CCc1ccc(N(CC)c2ncnc3nc[nH]c23)cc1` as the compound, how does the Potency read?
Answer: active: 4.11 µM
